PubChem BioAssay AID1224826 – NIAID, 2016

Screen: 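Regulators of Tlr4 signalling leading to Tnf-alpha expression in macrophages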 (primary screen)
Cells: RAW264.7 G9 macrophages from mouse bearing reporters for p65 (GFP) and the Tnf promoter (mCherry)
Reagents: siRNA pool against mouse genes, 100 nM
Duration: 16 h of LPS stimulation, after 2 days of siRNA transfection
Treatment: bacterial lipopolysaccharide (Salmonella minnesota R595), 10 ng/ml
Measurement: 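Imaged Tnf reporter mCherry in nuclei, minus background, normalised per plate to the median and expressed as robust z-scores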
Scale: Tnf reporter robust z-score: higher = stronger Tnf promoter reporter signal after LPS; Tnf reporter intensity: higher = stronger Tnf promoter reporter signal
Hit rule: 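a well counts as active at a score of -1.3 or below (Tlr4 knock-down control median) or above 3 (raised signal); controls and wells holding fewer than 50 cells are excluded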
Calls: active = Tnf reporter clearly lowered or raised; inactive = no clear change in Tnf reporter
Here is one part, drawn at random, of about 17,000 reagents tested. In the full data, about 1,110 (6.6%) are marked active. 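Active means lowered or raised reporter signal; replicate intensities are raw and not normalised per plate.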 The numbers tell different reagents against one gene apart. No sequences are given here.

| gene knocked down | pool no. | Tnf reporter robust z-score | fewer than 50 cells in well | Tnf reporter intensity, replicate 1 | Tnf reporter intensity, replicate 2 | activity call |
| --- | --- | --- | --- | --- | --- | --- |
| Ube2dnl1 | 1 | 1.27 | enough cells in well | 214 | 257 | inactive |
| Pik3r1 | 1 | -0.69 | enough cells in well | 140 | 133 | inactive |
| Gpsm1 | 1 | 0.03 | enough cells in well | 293 | 135 | inactive |
| Tle2 | 1 | 1.25 | enough cells in well | 325 | 194 | inactive |
| Or5au1 | 1 | -0.28 | enough cells in well | 183 | 95.6 | inactive |
| Klra20 | 1 | -1.06 | enough cells in well | 218 | 49.9 | inactive |
| Gphb5 | 1 | – | fewer than 50 cells per well; well left out of calls | 99.9 | 42 | inactive |
| Nfkbib | 1 | -0.92 | enough cells in well | 173 | 103 | inactive |
| Kctd19 | 1 | -0.36 | enough cells in well | 183 | 61.5 | inactive |
| Zfp438 | 1 | 0.03 | enough cells in well | 214 | 203 | inactive |
| Alox12b | 1 | 0.43 | enough cells in well | 191 | 196 | inactive |
| Tmem170 | 1 | -1.58 | enough cells in well | 91.1 | 80.2 | active |
| Cdrt4 | 1 | – | fewer than 50 cells per well; well left out of calls | 163 | 59.8 | inactive |
| Cers6 | 1 | -0.01 | enough cells in well | 249 | 91.1 | inactive |
| Tceal5 | 1 | 0.12 | enough cells in well | 153 | 181 | inactive |
| Nupr2 | 1 | -0.95 | enough cells in well | 160 | 50.8 | inactive |
| Rhox4b | 1 | 3.53 | enough cells in well | 419 | 246 | active |
| Tm2d1 | 1 | 0.66 | enough cells in well | 199 | 314 | inactive |
| Or4e1 | 1 | -0.67 | enough cells in well | 115 | 111 | inactive |
| Slc22a15 | 1 | 0.88 | enough cells in well | 259 | 90.2 | inactive |
| Chat | 1 | -0.63 | enough cells in well | 192 | 206 | inactive |
| Szrd1 | 1 | 0.75 | enough cells in well | 266 | 177 | inactive |
| Aig1 | 1 | 0.69 | enough cells in well | 276 | 209 | inactive |
| Krtap19-5 | 1 | -1.07 | enough cells in well | 158 | 59.8 | inactive |
| Vmn1r25 | 1 | 0.78 | enough cells in well | 142 | 119 | inactive |
| Bmpr1a | 1 | -0.68 | enough cells in well | 166 | 109 | inactive |
| Mamstr | 1 | -0.07 | enough cells in well | 170 | 145 | inactive |
| Prdx6b | 1 | – | fewer than 50 cells per well; well left out of calls | 223 | 71.1 | inactive |
| Clec2d | 1 | -0.76 | enough cells in well | 188 | 72.4 | inactive |
| Pole2 | 1 | -0.55 | enough cells in well | 112 | 99.2 | inactive |
| Defa31 | 1 | 2.42 | enough cells in well | 326 | 218 | inactive |
| Or14j10 | 1 | -1.21 | enough cells in well | 122 | 79.8 | inactive |
| Cmklr1 | 1 | 0.41 | enough cells in well | 233 | 358 | inactive |
| V1rd19 | 1 | 5.46 | enough cells in well | 272 | 307 | active |
| Or3a1d | 1 | -1.18 | enough cells in well | 114 | 57.6 | inactive |
| Ptpn23 | 1 | 0.01 | enough cells in well | 263 | 179 | inactive |
| Plxna1 | 1 | – | fewer than 50 cells per well; well left out of calls | 204 | 138 | inactive |
| Polq | 1 | 0.23 | enough cells in well | 141 | 138 | inactive |
| Slco4a1 | 1 | – | fewer than 50 cells per well; well left out of calls | 30 | 29.6 | inactive |
| Oaz2 | 1 | 0.96 | enough cells in well | 328 | 233 | inactive |
| Cgnl1 | 1 | 0.01 | enough cells in well | 155 | 150 | inactive |
| Ccdc33 | 1 | 1.58 | enough cells in well | 271 | 104 | inactive |
| Dbt | 1 | 0.6 | enough cells in well | 289 | 262 | inactive |
| Gab2 | 1 | -0.43 | enough cells in well | 243 | 180 | inactive |
| Dld | 1 | -0.12 | enough cells in well | 237 | 183 | inactive |
| Pik3ap1 | 1 | -0.48 | enough cells in well | 203 | 164 | inactive |
| Armc5 | 1 | -0.01 | enough cells in well | 191 | 224 | inactive |
| Slc23a1 | 1 | 0.38 | enough cells in well | 108 | 120 | inactive |
| Abtb1 | 1 | 2.24 | enough cells in well | 286 | 268 | inactive |
| Hmgcll1 | 1 | – | fewer than 50 cells per well; well left out of calls | 111 | 71 | inactive |
| Ppp6c | 1 | -0.39 | enough cells in well | 236 | 147 | inactive |
| Bzw2 | 1 | 1.34 | enough cells in well | 0 | 240 | inactive |
| Mtus2 | 1 | -0.92 | enough cells in well | 67.6 | 111 | inactive |
| S100a16 | 1 | -1.61 | enough cells in well | 68.5 | 48.5 | active |
| Tmem19 | 1 | 0.83 | enough cells in well | 149 | 62.9 | inactive |
| Taf6l | 1 | -0.65 | enough cells in well | 178 | 107 | inactive |
| H2-T13 | 1 | 1.64 | enough cells in well | 204 | 301 | inactive |
| Abcg3 | 1 | -0.84 | enough cells in well | 149 | 132 | inactive |
| Clec2i | 1 | 0.05 | enough cells in well | 211 | 258 | inactive |
| Krtap21-1 | 1 | 1.24 | enough cells in well | 290 | 132 | inactive |
| Krtap21-1 | 2 | -0.11 | enough cells in well | 172 | 136 | inactive |
| Coro2a | 1 | -0.38 | enough cells in well | 171 | 211 | inactive |
| Cntrl | 1 | -1.11 | enough cells in well | 124 | 106 | inactive |
| Snap29 | 1 | 1.07 | enough cells in well | 146 | 71.4 | inactive |
| Tgm4 | 1 | -0.47 | enough cells in well | 160 | 274 | inactive |
| Ccbe1 | 1 | -0.78 | enough cells in well | 149 | 121 | inactive |
| Lmbr1 | 1 | 1.19 | enough cells in well | 376 | 106 | inactive |
| Nlrp4f | 1 | 0.63 | enough cells in well | 132 | 204 | inactive |
| B4galt2 | 1 | -0.21 | enough cells in well | 209 | 173 | inactive |
| 4930579K19Rik | 1 | 0.45 | enough cells in well | 238 | 89.2 | inactive |
| Zhx1 | 1 | -1.48 | enough cells in well | 125 | 102 | active |
| Ces1d | 1 | -0.59 | enough cells in well | 129 | 231 | inactive |
| Or8d2 | 1 | -0.43 | enough cells in well | 124 | 116 | inactive |
| Ralgds | 1 | -0.4 | enough cells in well | 305 | 152 | inactive |
| 2310067E19Rik | 1 | 0.12 | enough cells in well | 161 | 38.4 | inactive |

Entries listed so far whose target name starts with G or g:
| gene knocked down | pool no. | Tnf reporter robust z-score | fewer than 50 cells in well | Tnf reporter intensity, replicate 1 | Tnf reporter intensity, replicate 2 | activity call |
| --- | --- | --- | --- | --- | --- | --- |
| Gpsm1 | 1 | 0.03 | enough cells in well | 293 | 135 | inactive |
| Gphb5 | 1 | – | fewer than 50 cells per well; well left out of calls | 99.9 | 42 | inactive |
| Gab2 | 1 | -0.43 | enough cells in well | 243 | 180 | inactive |
